Measurements published in the supplement of paper PMC8728848.
The other results are listed elsewhere or left out.

Legend:
Test in all cases: glycan array binding signal (z-score within array); higher = stronger binding
Conditions in all cases: glycan notation: IUPAC condensed, linker removed
[1] = molecular target: Fuc(a1-2)[Gal(a1-3)]Gal(b1-4)GlcNAc(b1-2)Man(a1-3)[Fuc(a1-2)[Gal(a1-3)]Gal(b1-4)GlcNAc(b1-2)Man(a1-6)]Man(b1-4)GlcNAc(b1-4)[Fuc(a1-6)]GlcNAc
Procedure, shortened: (§1)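 Glycan array data were curated from 3228 arrays in the Consortium for Functional Glycomics database and kept only where the protein sequence was available. Glycan names were converted to IUPAC-condensed notation, and columns mapping to the same glycan were averaged. The binding signal is a within-array Z-score, averaged across arrays of the same protein sequence at different concentrations or buffers and across linkers. Negative Z-scores can be read as non-binding.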

[2] = molecular target: Fuc(a1-2)[Gal(a1-3)]Gal(b1-4)GlcNAc(b1-3)GalNAc
Procedure, shortened: as §1

[3] = molecular target: Fuc(a1-2)[Gal(a1-3)]Gal(b1-4)GlcNAc(b1-3)[Fuc(a1-2)[Gal(a1-3)]Gal(b1-4)GlcNAc(b1-6)]GalNAc
Procedure, shortened: as §1

[4] = molecular target: Fuc(a1-2)[Gal(a1-3)]Gal(b1-4)GlcNAc(b1-6)GalNAc
Procedure, shortened: as §1

[5] = molecular target: Fuc(a1-2)[Gal(a1-3)]Gal(b1-4)[Fuc(a1-3)]Glc
Procedure, shortened: as §1

[6] = molecular target: Fuc(a1-2)[Gal(a1-3)]Gal(b1-4)[Fuc(a1-3)]GlcNAc
Procedure, shortened: as §1

[7] = molecular target: Fuc(a1-2)[Gal(a1-3)]Gal(b1-4)[Fuc(a1-3)]GlcNAc(b1-3)GalNAc
Procedure, shortened: as §1

[8] = molecular target: Fuc(a1-2)[Gal(a1-4)]Gal(b1-4)GlcNAc
Procedure, shortened: as §1

[9] = molecular target: Fuc(a1-2)[GalNAc(a1-3)]Gal
Procedure, shortened: as §1

[10] = molecular target: Fuc(a1-2)[GalNAc(a1-3)]Gal(b1-3)GalNAc(a1-3)[Fuc(a1-2)]Gal(b1-4)GlcNAc
Procedure, shortened: as §1

[11] = molecular target: Fuc(a1-2)[GalNAc(a1-3)]Gal(b1-3)GalNAc(b1-3)Gal(a1-4)Gal(b1-4)Glc
Procedure, shortened: as §1

[12] = molecular target: Fuc(a1-2)[GalNAc(a1-3)]Gal(b1-3)GlcNAc
Procedure, shortened: as §1

[13] = molecular target: Fuc(a1-2)[GalNAc(a1-3)]Gal(b1-3)GlcNAc(b1-2)Man(a1-3)[Fuc(a1-2)[GalNAc(a1-3)]Gal(b1-3)GlcNAc(b1-2)Man(a1-6)]Man(b1-4)GlcNAc(b1-4)GlcNAc
Procedure, shortened: as §1

[14] = molecular target: Fuc(a1-2)[GalNAc(a1-3)]Gal(b1-3)GlcNAc(b1-2)Man(a1-3)[Fuc(a1-2)[GalNAc(a1-3)]Gal(b1-3)GlcNAc(b1-2)Man(a1-6)]Man(b1-4)GlcNAc(b1-4)[Fuc(a1-6)]GlcNAc
Procedure, shortened: as §1

[15] = molecular target: Fuc(a1-2)[GalNAc(a1-3)]Gal(b1-3)GlcNAc(b1-3)GalNAc
Procedure, shortened: as §1

[16] = molecular target: Fuc(a1-2)[GalNAc(a1-3)]Gal(b1-3)GlcNAc(b1-6)GalNAc
Procedure, shortened: as §1

[17] = molecular target: Fuc(a1-2)[GalNAc(a1-3)]Gal(b1-4)Glc
Procedure, shortened: as §1

[18] = molecular target: Fuc(a1-2)[GalNAc(a1-3)]Gal(b1-4)GlcNAc
Procedure, shortened: as §1

[19] = molecular target: Fuc(a1-2)[GalNAc(a1-3)]Gal(b1-4)GlcNAc(b1-2)Man
Procedure, shortened: as §1

[20] = molecular target: Fuc(a1-2)[GalNAc(a1-3)]Gal(b1-4)GlcNAc(b1-2)Man(a1-3)[Fuc(a1-2)[GalNAc(a1-3)]Gal(b1-4)GlcNAc(b1-2)Man(a1-6)]Man(b1-4)GlcNAc(b1-4)GlcNAc
Procedure, shortened: as §1

[21] = molecular target: Fuc(a1-2)[GalNAc(a1-3)]Gal(b1-4)GlcNAc(b1-2)Man(a1-3)[Fuc(a1-2)[GalNAc(a1-3)]Gal(b1-4)GlcNAc(b1-2)Man(a1-6)]Man(b1-4)GlcNAc(b1-4)[Fuc(a1-6)]GlcNAc
Procedure, shortened: as §1

[22] = molecular target: Fuc(a1-2)[GalNAc(a1-3)]Gal(b1-4)GlcNAc(b1-3)Gal(b1-4)GlcNAc
Procedure, shortened: as §1

[23] = molecular target: Fuc(a1-2)[GalNAc(a1-3)]Gal(b1-4)GlcNAc(b1-3)Gal(b1-4)GlcNAc(b1-3)Gal(b1-4)GlcNAc
Procedure, shortened: as §1

[24] = molecular target: Fuc(a1-2)[GalNAc(a1-3)]Gal(b1-4)GlcNAc(b1-3)GalNAc
Procedure, shortened: as §1

[25] = molecular target: Fuc(a1-2)[GalNAc(a1-3)]Gal(b1-4)GlcNAc(b1-3)[Fuc(a1-2)[GalNAc(a1-3)]Gal(b1-4)GlcNAc(b1-6)]GalNAc
Procedure, shortened: as §1

[26] = molecular target: Fuc(a1-2)[GalNAc(a1-3)]Gal(b1-4)GlcNAc(b1-6)GalNAc
Procedure, shortened: as §1

[27] = molecular target: Fuc(a1-2)[GalNAc(a1-3)]Gal(b1-4)[Fuc(a1-3)]GlcNAc
Procedure, shortened: as §1

[28] = molecular target: Fuc(a1-2)[GalNAc(a1-3)]Gal(b1-4)[Fuc(a1-3)]GlcNAc(b1-3)GalNAc
Procedure, shortened: as §1

[29] = molecular target: Fuc(a1-2)[GalNAc(a1-4)]Gal(b1-4)GlcNAc
Procedure, shortened: as §1

[30] = molecular target: Fuc(a1-2)[GalNAc(b1-3)]Gal
Procedure, shortened: as §1

[31] = molecular target: Fuc(a1-3)GlcNAc
Procedure, shortened: as §1

[32] = molecular target: Fuc(a1-3)[Gal(b1-4)]Glc6S
Procedure, shortened: as §1

[33] = molecular target: Fuc(a1-3)[Gal(b1-4)]GlcNAc
Procedure, shortened: as §1

[34] = molecular target: Fuc(a1-3)[Gal(b1-4)]GlcNAc(b1-2)Man
Procedure, shortened: as §1

[35] = molecular target: Fuc(a1-3)[Gal(b1-4)]GlcNAc(b1-2)Man(a1-3)[Fuc(a1-3)[Gal(b1-4)]GlcNAc(b1-2)Man(a1-6)]Man(b1-4)GlcNAc(b1-4)GlcNAc
Procedure, shortened: as §1

[36] = molecular target: Fuc(a1-3)[Gal(b1-4)]GlcNAc(b1-2)Man(a1-3)[Fuc(a1-3)[Gal(b1-4)]GlcNAc(b1-2)Man(a1-6)]Man(b1-4)GlcNAc(b1-4)[Fuc(a1-6)]GlcNAc
Procedure, shortened: as §1

[37] = molecular target: Fuc(a1-3)[Gal(b1-4)]GlcNAc(b1-3)Gal(b1-3)[Fuc(a1-4)]GlcNAc
Procedure, shortened: as §1

[38] = molecular target: Fuc(a1-3)[Gal(b1-4)]GlcNAc(b1-3)Gal(b1-4)[Fuc(a1-3)]GlcNAc
Procedure, shortened: as §1

[39] = molecular target: Fuc(a1-3)[Gal(b1-4)]GlcNAc(b1-3)Gal(b1-4)[Fuc(a1-3)]GlcNAc(b1-3)Gal(b1-4)[Fuc(a1-3)]GlcNAc
Procedure, shortened: as §1

[40] = molecular target: Fuc(a1-3)[Gal(b1-4)]GlcNAc(b1-3)GalNAc
Procedure, shortened: as §1

[41] = molecular target: Fuc(a1-3)[Gal(b1-4)]GlcNAc(b1-6)GalNAc
Procedure, shortened: as §1

[42] = molecular target: Fuc(a1-3)[Gal(b1-4)]GlcNAc(b1-6)[Gal(b1-3)GlcNAc(b1-3)]Gal(b1-4)Glc
Procedure, shortened: as §1

[43] = molecular target: Fuc(a1-3)[Gal(b1-4)]GlcNAc6S
Procedure, shortened: as §1

[44] = molecular target: Fuc(a1-3)[Gal3S(b1-4)]Glc
Procedure, shortened: as §1

[45] = molecular target: Fuc(a1-3)[Gal3S(b1-4)]GlcNAc
Procedure, shortened: as §1

B1: Wzz (Escherichia coli) (protein)
chain: MRTWKFPSVRVMMRVENNNVSGQNHDPEQIDLIDLLVQLWRGKMTIIISVIVAIVLAIGYLAVAKEKWTSTAIITQPDVGQIAGYNNAMNVIYGQAAPKVSDLQETLIGRFSSAFSALAETLDNQEEPEKLTIEPSVKNQQLPLTVSYVGQTAEGAQMKLAQYIQQVDDKVNQELEKDLKDNIALGRKNLQDSLRTQEVVAQEQKDLRIRQIQEALQYANQAQVTKPQIQQTGEDITQDTLFLLGSEALESMIKHEATRPLVFSSNYYQTRQNLLDIDNLDVDKLDIHAYLYVMKPTLPIRRDSPKKAITLILAVLLGGMVGAGIVLGRNALRNYNAK
- glycan array binding signal (z-score) [1]: -0.233
- glycan array binding signal (z-score) [2]: 0.22
- glycan array binding signal (z-score) [3]: 0.857
- glycan array binding signal (z-score) [4]: 1.01
- glycan array binding signal (z-score) [5]: -0.914
- glycan array binding signal (z-score) [6]: -0.013
- glycan array binding signal (z-score) [7]: 1.59
- glycan array binding signal (z-score) [8]: -0.157
- glycan array binding signal (z-score) [9]: -0.416
- glycan array binding signal (z-score) [10]: 1.11
- glycan array binding signal (z-score) [11]: -0.325
- glycan array binding signal (z-score) [12]: 0.153
- glycan array binding signal (z-score) [13]: -0.965
- glycan array binding signal (z-score) [14]: -0.478
- glycan array binding signal (z-score) [15]: 0.208
- glycan array binding signal (z-score) [16]: -1.24
- glycan array binding signal (z-score) [17]: -0.187
- glycan array binding signal (z-score) [18]: -0.731
- glycan array binding signal (z-score) [19]: -0.478
- glycan array binding signal (z-score) [20]: 1.14
- glycan array binding signal (z-score) [21]: -0.158
- glycan array binding signal (z-score) [22]: -0.454
- glycan array binding signal (z-score) [23]: -0.168
- glycan array binding signal (z-score) [24]: 0.134
- glycan array binding signal (z-score) [25]: 0.421
- glycan array binding signal (z-score) [26]: -0.833
- glycan array binding signal (z-score) [27]: -0.666
- glycan array binding signal (z-score) [28]: 0.633
- glycan array binding signal (z-score) [29]: 0.333
- glycan array binding signal (z-score) [30]: 0.765
- glycan array binding signal (z-score) [31]: -0.669
- glycan array binding signal (z-score) [32]: 1.46
- glycan array binding signal (z-score) [33]: -0.033
- glycan array binding signal (z-score) [34]: -0.431
- glycan array binding signal (z-score) [35]: -0.298
- glycan array binding signal (z-score) [36]: 0.922
- glycan array binding signal (z-score) [37]: -0.329
- glycan array binding signal (z-score) [38]: 0.002
- glycan array binding signal (z-score) [39]: -0.043
- glycan array binding signal (z-score) [40]: -0.01
- glycan array binding signal (z-score) [41]: 0.129
- glycan array binding signal (z-score) [42]: -0.703
- glycan array binding signal (z-score) [43]: 0.36
- glycan array binding signal (z-score) [44]: -0.538
- glycan array binding signal (z-score) [45]: 0.259
